Data reported in the supplement of paper PMC10849652.
This is one part of the list.

Amino acid sequences for entries named in this document (tags omitted). A change or cut given only in a name is not applied to a line headed by its entry.
UniProt O75380, whole entry, looked up: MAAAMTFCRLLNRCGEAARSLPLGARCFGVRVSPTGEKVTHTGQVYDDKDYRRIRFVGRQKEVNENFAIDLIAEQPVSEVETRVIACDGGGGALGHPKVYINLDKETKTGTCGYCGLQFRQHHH
UniProt P35240: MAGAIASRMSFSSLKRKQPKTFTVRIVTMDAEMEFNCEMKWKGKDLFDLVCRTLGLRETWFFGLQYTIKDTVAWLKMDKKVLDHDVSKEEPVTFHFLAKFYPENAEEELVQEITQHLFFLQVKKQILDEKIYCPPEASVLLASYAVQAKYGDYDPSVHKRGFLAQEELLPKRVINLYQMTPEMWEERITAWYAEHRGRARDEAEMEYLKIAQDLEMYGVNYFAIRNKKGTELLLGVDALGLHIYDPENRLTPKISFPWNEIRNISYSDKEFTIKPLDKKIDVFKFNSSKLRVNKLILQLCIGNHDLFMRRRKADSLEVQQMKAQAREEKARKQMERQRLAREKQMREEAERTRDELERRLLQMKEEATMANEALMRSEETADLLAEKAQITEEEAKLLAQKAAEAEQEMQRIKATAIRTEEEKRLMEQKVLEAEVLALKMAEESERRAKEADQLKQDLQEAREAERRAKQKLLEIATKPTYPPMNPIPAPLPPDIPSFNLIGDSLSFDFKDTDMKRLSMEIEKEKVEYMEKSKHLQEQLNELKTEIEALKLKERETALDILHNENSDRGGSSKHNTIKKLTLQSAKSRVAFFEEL
UniProt Q00653: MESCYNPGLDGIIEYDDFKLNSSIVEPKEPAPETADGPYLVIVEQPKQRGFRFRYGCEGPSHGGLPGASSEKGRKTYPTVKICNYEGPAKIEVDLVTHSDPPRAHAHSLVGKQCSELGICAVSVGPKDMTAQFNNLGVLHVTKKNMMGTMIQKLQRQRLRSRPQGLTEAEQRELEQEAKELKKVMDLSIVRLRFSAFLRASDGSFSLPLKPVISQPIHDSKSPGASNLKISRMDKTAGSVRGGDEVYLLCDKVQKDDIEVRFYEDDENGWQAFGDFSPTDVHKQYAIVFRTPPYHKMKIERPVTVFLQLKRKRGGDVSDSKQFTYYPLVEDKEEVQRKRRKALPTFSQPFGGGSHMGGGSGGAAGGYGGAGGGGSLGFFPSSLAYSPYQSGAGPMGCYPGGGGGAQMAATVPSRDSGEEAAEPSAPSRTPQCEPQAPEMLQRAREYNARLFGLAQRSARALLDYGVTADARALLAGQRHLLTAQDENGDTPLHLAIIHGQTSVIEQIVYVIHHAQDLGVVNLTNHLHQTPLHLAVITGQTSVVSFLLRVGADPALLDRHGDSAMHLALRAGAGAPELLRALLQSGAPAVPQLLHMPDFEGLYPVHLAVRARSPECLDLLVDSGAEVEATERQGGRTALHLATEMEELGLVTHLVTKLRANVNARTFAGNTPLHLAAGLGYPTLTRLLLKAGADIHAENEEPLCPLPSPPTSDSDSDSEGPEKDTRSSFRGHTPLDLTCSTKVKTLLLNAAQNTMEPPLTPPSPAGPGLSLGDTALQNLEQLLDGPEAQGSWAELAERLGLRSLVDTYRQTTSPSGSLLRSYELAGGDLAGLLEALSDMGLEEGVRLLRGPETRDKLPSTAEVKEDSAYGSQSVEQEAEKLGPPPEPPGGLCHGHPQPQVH
UniProt Q16795, whole entry, looked up: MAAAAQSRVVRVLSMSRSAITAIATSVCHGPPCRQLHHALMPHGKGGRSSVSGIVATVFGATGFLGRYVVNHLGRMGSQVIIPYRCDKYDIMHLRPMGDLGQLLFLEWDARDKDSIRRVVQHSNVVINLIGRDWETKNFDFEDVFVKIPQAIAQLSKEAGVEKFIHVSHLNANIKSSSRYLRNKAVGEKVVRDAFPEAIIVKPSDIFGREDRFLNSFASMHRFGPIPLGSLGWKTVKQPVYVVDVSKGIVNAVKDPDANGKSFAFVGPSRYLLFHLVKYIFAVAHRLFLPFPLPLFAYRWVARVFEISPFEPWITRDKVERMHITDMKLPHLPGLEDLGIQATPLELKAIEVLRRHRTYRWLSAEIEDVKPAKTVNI
UniProt Q8TDX7: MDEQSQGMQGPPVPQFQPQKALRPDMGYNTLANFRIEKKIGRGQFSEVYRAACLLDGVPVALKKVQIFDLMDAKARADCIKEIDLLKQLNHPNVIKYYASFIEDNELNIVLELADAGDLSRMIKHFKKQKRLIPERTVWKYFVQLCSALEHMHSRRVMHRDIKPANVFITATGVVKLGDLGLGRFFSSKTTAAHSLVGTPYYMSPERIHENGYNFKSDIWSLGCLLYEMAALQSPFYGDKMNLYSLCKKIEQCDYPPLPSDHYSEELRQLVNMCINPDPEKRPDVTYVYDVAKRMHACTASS
UniProt Q9Y697: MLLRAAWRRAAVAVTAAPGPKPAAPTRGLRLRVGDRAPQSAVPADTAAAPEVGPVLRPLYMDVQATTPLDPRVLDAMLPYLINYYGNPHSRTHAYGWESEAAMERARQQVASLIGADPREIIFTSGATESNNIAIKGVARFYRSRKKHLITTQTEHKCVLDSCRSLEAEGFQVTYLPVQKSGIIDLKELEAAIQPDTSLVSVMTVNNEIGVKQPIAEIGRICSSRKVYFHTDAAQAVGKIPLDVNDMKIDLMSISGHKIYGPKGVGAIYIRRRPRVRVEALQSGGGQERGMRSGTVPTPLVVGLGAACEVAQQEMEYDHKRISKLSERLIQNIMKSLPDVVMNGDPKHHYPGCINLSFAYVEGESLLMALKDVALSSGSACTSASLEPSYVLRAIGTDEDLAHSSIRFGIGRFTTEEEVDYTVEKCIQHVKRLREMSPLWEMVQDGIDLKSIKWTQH
UniProt Q14494: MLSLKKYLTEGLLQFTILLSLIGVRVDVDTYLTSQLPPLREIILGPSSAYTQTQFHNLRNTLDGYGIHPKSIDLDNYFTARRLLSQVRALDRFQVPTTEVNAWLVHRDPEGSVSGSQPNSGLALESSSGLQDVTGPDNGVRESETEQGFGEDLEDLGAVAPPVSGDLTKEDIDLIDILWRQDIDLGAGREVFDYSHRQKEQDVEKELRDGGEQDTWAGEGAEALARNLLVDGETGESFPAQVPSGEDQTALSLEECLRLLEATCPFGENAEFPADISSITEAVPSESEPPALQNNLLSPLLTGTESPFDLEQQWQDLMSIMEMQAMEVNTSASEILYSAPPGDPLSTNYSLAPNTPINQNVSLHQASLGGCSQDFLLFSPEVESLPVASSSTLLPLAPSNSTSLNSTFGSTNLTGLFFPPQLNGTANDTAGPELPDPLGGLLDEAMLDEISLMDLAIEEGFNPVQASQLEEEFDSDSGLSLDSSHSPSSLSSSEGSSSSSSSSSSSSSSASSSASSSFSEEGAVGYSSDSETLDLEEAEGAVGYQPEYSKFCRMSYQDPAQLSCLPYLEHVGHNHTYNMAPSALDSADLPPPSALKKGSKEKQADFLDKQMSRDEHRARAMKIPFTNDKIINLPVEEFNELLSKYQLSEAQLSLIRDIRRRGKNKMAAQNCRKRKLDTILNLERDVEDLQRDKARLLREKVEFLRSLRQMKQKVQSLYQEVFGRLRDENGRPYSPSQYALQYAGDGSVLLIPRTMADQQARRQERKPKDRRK
UniProt Q6KC79: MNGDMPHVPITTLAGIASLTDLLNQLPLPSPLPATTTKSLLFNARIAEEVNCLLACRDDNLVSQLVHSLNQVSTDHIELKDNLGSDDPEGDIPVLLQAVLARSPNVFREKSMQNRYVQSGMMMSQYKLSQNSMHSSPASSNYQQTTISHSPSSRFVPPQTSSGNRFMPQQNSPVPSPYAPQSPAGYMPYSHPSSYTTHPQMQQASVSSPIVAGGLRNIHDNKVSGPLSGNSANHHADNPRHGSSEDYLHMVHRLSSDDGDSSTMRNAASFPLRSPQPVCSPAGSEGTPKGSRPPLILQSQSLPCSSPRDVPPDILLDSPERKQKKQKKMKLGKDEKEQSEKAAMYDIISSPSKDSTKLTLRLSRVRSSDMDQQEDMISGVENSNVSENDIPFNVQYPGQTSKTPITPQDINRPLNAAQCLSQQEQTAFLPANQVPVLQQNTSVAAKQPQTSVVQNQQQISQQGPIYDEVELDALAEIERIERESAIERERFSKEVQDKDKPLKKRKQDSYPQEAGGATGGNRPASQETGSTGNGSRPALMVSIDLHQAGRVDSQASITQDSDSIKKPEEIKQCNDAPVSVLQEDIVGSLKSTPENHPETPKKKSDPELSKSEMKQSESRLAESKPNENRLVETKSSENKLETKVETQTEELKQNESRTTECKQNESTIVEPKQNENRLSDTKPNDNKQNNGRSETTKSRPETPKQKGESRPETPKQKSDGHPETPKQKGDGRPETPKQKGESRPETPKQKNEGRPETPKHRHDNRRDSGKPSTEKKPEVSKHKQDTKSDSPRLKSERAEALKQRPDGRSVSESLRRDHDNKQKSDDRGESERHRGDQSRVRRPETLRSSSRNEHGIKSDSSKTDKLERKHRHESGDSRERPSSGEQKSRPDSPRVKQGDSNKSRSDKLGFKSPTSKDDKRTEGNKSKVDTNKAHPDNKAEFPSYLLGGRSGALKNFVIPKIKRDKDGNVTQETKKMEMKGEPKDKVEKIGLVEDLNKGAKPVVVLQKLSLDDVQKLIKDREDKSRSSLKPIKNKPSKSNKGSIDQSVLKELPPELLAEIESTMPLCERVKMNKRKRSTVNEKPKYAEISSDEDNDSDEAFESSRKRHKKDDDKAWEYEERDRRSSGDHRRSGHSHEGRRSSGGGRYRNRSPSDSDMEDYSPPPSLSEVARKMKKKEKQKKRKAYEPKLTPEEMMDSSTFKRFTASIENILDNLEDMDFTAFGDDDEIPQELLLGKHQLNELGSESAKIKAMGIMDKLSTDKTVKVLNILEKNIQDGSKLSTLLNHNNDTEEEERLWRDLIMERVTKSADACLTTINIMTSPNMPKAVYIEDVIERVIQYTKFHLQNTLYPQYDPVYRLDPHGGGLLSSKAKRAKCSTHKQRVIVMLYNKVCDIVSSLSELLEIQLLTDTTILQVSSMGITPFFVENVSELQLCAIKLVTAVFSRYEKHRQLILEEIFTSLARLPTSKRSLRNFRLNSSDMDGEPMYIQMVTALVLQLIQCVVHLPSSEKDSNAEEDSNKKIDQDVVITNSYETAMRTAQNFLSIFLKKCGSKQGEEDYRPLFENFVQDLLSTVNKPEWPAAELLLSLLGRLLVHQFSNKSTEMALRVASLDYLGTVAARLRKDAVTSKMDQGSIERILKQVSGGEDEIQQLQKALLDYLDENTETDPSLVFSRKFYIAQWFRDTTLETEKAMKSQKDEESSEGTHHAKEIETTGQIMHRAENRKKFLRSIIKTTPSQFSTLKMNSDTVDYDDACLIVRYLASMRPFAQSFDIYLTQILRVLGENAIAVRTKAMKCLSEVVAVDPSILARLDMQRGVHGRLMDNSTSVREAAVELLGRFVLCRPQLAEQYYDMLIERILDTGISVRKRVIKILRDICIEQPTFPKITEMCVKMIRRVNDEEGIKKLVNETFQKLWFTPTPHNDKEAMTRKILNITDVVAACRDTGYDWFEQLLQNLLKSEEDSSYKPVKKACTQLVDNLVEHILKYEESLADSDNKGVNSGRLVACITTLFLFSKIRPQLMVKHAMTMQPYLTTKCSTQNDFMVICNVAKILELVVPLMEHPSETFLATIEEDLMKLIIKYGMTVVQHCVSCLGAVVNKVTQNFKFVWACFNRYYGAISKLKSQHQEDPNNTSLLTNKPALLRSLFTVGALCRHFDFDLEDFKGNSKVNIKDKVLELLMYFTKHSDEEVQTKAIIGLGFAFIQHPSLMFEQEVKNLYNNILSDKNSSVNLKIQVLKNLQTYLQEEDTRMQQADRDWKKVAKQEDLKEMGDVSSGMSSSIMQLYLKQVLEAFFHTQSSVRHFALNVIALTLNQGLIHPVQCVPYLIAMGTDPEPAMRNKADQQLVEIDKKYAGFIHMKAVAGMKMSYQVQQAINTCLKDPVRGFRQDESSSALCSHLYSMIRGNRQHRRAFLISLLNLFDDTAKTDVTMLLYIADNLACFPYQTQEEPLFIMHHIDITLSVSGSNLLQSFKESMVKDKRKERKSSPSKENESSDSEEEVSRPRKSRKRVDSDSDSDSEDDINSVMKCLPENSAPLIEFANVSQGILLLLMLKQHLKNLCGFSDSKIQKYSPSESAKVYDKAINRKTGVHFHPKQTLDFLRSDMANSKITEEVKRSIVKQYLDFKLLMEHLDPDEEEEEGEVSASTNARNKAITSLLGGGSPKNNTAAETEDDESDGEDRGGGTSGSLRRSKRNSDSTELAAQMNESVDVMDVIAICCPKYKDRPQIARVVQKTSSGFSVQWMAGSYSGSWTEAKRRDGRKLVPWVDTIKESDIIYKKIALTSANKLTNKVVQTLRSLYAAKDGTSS

Legend:
Assay in all cases: log2 fold change, soluble protein after heating vs DMSO (PISA); higher = thermal stabilisation; K562 lysate, 10 uM; active = over 0.2 and 3.5 SD of the protein, either way, in both replicates (recomputed)
[1] = compound: NCC(=O)Nc1ccc(-n2nc(C(F)(F)F)cc2-c2ccc3c(ccc4ccccc43)c2)cc1
Method in brief: (§1)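 Dounce homogenisation of K562 pellets in PBS pH 7.4 with 1 mM MgCl2 produced a crude extract, used at 1 mg/mL protein. Exposure to 10 μM compound lasted 30 min, and aliquots were then heated for 3 min across 48°C-58°C, pooled and brought to 0.5% NP-40 at 4°C. The supernatant after 21,000xg for 90 min was quantified by TMTpro 16plex LC-MS/MS with channel sums equalised. Duplicate values are given as log-two fold change in thermal stability relative to solvent controls.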

[2] = compound: O=C(CCCCCCC(=O)Nc1ccccc1)NO [vorinostat]
Method in brief: as §1

[3] = compound: O=C(O)c1ccc2c(c1)nc(Nc1cccc(Cl)c1)c1ccncc12 [silmitasertib]
Method in brief: as §1

[4] = compound: O=C1NC(=O)C(c2cnc3ccccn23)=C1c1cn2c3c(cc(F)cc13)CN(C(=O)N1CCCCC1)CC2
Method in brief: as §1

[5] = compound: c1cn2cc(-c3ccc4cn[nH]c4c3)nc(Nc3ccc(N4CCOCC4)cc3)c2n1 [entospletinib]
Method in brief: as §1

Measured: log2 fold change

NDUFS6 (UniProt O75380)
inactive: [1] -0.001 | [2] 0.089 | [3] 0.009 | [4] -0.047 | [5] -0.016

NF2 (UniProt P35240)
inactive: [1] 0.022 | [2] -0.039 | [3] -0.039 | [4] 0.015 | [5] -0.093

NFKB2 (UniProt Q00653)
inactive: [1] -0.041 | [2] -0.145 | [3] -0.006 | [4] 0.022 | [5] 0.025

NDUFA9 (UniProt Q16795)
inactive: [1] -0.087 | [2] 0.045 | [3] 0.045 | [4] 0.043 | [5] 0.042

NEK7 (UniProt Q8TDX7)
inactive: [1] -0.037 | [3] 0.105 | [4] 0.003 | [5] 0.012
active: [2] -0.338

NFS1 (UniProt Q9Y697)
inactive: [1] 0.022 | [2] 0.001 | [3] 0.007 | [4] -0.018 | [5] -0.02

NFE2L1 (UniProt Q14494)
inactive: [1] 0.257 | [2] 0.104 | [3] -0.021 | [4] 0.086 | [5] -0.042

NIPBL (UniProt Q6KC79)
active: [2] -0.357
inactive: [1] -0.024 | [3] 0.101 | [4] -0.005 | [5] 0.071

NDUFS2 (UniProt O75306)
inactive: [1] 0.011 | [2] 0.056 | [3] -0.012 | [4] 0 | [5] -0.009
